Measurements: the supplement of paper PMC10849652
Some of the results follow.

The chains behind the UniProt entries cited, without tags or fusion partners. Where a name states a change or a piece, a line headed by the entry shows the natural chain unless it says otherwise.
UniProt Q9Y6M0: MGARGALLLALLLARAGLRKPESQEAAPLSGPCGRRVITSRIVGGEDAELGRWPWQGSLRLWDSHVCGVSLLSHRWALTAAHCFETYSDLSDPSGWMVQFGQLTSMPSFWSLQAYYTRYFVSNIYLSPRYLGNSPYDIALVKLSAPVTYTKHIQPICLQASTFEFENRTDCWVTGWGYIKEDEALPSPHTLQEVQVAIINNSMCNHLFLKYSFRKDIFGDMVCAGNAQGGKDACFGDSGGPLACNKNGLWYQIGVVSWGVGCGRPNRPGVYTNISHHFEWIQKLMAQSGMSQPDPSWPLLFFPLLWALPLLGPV
UniProt P49720: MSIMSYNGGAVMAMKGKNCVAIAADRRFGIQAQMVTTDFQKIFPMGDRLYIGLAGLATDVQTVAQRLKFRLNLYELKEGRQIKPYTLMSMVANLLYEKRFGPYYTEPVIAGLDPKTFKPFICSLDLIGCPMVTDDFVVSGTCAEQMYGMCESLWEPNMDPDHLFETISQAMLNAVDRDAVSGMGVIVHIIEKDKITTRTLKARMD
UniProt Q9UNM6: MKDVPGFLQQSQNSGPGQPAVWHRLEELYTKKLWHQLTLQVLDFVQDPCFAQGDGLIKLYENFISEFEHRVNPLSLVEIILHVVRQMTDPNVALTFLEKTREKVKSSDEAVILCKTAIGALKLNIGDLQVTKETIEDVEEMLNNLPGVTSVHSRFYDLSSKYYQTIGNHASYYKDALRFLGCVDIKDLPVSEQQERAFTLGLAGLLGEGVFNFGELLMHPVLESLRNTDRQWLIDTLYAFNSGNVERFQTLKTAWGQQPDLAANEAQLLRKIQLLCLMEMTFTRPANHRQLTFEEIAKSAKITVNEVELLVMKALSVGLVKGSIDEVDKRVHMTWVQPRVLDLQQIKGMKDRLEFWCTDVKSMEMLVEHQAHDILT
UniProt P61289: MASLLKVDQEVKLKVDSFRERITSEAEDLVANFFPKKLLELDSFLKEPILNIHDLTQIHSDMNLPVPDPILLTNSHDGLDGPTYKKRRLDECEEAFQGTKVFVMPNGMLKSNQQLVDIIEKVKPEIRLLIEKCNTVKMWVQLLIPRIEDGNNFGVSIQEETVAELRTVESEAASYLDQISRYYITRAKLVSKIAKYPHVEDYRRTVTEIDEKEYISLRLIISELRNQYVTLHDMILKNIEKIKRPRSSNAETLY
UniProt Q9UL46, whole entry, looked up: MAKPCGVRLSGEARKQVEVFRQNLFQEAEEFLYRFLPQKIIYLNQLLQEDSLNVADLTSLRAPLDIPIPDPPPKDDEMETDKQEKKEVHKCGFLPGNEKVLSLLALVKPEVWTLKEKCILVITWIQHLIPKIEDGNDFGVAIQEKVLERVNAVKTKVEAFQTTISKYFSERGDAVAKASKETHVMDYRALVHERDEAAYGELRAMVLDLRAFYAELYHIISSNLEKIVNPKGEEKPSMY
UniProt Q8TB72: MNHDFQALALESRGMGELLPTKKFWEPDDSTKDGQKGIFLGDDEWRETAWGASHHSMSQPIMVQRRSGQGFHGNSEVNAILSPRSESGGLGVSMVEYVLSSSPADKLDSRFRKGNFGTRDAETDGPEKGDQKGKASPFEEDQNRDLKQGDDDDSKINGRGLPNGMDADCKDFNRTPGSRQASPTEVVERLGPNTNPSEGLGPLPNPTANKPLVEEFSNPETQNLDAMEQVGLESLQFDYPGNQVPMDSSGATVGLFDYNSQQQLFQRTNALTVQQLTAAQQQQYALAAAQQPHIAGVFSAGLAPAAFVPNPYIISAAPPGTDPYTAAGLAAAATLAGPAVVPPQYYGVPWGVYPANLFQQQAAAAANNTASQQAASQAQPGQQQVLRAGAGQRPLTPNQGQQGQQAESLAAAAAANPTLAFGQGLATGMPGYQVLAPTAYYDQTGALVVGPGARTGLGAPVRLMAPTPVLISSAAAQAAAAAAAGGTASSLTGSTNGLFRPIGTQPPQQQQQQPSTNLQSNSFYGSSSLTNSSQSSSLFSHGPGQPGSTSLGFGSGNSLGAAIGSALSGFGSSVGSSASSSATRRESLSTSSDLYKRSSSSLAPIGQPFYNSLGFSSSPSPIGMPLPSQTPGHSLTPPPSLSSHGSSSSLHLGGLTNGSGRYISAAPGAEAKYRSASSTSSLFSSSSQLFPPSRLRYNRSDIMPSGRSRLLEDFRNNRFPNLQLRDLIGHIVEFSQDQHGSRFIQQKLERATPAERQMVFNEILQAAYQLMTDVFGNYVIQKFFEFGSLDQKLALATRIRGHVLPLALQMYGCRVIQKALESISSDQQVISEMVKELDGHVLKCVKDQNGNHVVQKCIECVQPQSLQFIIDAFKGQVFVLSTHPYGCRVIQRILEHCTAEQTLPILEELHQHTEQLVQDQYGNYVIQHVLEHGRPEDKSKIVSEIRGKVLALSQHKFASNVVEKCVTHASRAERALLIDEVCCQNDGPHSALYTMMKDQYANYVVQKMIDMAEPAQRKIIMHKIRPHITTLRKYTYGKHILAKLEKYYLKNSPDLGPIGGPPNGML
UniProt Q9BRX8: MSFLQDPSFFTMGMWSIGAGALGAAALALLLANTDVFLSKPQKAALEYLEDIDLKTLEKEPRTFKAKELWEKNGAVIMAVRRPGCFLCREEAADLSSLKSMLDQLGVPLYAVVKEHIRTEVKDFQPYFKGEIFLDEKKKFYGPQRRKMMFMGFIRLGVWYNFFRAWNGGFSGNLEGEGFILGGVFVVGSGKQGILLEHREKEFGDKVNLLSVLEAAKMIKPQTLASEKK
UniProt P20962: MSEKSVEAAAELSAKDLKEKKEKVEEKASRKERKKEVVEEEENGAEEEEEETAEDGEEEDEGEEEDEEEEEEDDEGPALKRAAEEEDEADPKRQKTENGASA
UniProt O95758: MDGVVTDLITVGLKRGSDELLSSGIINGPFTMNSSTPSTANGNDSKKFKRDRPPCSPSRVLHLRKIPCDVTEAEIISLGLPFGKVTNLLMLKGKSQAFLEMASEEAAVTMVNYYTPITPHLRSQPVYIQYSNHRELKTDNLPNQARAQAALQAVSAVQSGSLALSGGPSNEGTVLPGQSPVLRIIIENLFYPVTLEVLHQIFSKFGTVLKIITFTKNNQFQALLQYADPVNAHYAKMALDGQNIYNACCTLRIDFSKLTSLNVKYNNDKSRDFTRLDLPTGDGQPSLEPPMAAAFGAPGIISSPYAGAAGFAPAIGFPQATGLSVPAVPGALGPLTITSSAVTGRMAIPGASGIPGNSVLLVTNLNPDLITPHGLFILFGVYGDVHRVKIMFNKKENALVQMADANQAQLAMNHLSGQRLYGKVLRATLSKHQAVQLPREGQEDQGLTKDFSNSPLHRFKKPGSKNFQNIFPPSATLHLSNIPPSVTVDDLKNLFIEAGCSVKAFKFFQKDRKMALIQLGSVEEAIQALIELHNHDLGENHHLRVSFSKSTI
UniProt Q9ULL5: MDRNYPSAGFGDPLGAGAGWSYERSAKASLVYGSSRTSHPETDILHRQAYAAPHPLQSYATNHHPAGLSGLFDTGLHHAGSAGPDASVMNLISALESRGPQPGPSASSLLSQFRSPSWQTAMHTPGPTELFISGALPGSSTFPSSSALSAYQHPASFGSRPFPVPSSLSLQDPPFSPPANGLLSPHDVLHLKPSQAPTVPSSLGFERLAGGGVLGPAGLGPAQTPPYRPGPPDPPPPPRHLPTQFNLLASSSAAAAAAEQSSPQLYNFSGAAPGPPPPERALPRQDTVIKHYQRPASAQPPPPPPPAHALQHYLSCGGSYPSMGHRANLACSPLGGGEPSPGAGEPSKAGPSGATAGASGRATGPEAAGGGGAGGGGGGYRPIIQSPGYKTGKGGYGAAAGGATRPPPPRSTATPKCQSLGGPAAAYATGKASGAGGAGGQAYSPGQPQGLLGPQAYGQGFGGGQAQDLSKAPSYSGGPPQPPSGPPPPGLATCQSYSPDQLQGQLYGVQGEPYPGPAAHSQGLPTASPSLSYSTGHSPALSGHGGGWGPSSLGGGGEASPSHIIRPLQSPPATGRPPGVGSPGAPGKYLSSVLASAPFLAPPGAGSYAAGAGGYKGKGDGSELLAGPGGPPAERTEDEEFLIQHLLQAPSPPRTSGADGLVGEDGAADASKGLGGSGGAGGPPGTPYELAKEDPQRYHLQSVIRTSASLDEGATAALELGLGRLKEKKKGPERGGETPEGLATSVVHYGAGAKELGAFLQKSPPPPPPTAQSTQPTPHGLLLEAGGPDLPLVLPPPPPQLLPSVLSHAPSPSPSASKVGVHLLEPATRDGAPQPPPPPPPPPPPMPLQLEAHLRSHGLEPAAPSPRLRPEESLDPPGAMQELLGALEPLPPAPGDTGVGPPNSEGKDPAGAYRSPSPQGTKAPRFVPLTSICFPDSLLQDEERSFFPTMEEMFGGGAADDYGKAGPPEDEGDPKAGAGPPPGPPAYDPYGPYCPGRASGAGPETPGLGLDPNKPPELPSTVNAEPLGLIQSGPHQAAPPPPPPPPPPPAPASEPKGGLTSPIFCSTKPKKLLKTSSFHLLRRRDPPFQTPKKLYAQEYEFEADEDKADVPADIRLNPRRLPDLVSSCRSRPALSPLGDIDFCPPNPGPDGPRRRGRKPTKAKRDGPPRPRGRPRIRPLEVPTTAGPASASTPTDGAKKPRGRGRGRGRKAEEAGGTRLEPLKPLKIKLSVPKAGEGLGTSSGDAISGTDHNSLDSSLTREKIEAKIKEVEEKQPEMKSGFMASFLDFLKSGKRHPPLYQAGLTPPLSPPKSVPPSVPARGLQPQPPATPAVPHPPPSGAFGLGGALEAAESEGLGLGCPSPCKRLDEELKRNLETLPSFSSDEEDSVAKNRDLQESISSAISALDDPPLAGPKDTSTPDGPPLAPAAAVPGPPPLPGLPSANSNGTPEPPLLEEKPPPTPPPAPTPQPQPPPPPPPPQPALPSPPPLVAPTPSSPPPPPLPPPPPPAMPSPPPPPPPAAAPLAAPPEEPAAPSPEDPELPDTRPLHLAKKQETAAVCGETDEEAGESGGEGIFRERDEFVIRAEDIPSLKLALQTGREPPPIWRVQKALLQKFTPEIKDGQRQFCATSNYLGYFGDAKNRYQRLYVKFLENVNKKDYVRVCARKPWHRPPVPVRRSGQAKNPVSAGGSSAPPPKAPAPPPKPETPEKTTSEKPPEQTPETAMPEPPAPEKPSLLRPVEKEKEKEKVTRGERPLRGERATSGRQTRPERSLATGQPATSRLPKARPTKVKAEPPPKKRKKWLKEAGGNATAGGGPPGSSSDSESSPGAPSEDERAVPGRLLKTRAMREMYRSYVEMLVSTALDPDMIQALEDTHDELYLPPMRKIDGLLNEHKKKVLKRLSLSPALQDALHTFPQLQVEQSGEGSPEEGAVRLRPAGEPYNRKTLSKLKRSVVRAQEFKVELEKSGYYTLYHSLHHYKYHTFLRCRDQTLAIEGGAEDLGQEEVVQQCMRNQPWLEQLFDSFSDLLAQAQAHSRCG
UniProt O00487, whole entry, looked up: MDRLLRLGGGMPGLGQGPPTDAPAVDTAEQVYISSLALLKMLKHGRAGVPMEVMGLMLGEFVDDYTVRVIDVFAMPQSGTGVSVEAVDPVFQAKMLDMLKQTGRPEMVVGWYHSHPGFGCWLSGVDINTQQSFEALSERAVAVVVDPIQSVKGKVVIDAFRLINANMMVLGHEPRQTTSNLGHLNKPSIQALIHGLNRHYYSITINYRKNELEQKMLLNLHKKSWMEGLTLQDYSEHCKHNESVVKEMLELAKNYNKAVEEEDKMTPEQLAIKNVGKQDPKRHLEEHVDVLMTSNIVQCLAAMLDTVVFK
UniProt P35236: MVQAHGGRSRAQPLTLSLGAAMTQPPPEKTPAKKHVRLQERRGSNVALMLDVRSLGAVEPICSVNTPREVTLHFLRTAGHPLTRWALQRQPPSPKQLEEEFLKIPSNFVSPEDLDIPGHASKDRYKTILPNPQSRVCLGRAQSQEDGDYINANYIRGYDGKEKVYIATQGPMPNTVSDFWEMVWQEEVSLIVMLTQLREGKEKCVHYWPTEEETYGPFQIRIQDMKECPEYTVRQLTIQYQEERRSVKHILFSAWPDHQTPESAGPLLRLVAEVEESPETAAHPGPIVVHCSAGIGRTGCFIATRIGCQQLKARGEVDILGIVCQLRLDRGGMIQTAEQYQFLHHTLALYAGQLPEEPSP
UniProt Q86YD1: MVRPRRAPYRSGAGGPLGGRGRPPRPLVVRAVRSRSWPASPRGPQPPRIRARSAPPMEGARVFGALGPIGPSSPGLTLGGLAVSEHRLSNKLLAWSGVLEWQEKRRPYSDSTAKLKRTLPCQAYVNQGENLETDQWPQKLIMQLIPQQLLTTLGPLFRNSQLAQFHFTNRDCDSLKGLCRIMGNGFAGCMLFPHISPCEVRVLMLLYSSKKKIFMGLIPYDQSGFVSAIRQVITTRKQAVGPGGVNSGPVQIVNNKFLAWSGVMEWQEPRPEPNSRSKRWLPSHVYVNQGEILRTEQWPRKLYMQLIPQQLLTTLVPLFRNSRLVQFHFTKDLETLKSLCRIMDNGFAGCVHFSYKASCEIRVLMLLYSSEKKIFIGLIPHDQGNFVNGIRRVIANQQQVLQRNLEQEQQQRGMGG

compound: CS(=O)(=O)N1CCN(Cc2cc3nc(-c4cccc5[nH]ncc45)nc(N4CCOCC4)c3s2)CC1 [pictilisib]; test: log2 fold change, soluble protein after heating vs DMSO (PISA); higher = thermal stabilisation; K562 lysate, 10 uM; active = over 0.2 and 3.5 SD of the protein, either way, in both replicates (recomputed)
How it was run: (§1)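 A 30 min treatment with 10 μM compound was applied to crude K562 extract at 1 mg/mL protein in PBS pH 7.4 with 1 mM MgCl2. Heating for 3 min spanned 48°C-58°C, after which aliquots were pooled, adjusted to 0.5% NP-40 at 4°C and spun at 21,000xg for 90 min. TMTpro 16plex LC-MS/MS of the supernatant, with channel sums equalised, gave values recorded as log-two fold change in thermal stability against solvent controls, from duplicates.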

| Target | log2 fold change |
| --- | --- |
| PRSS21 (UniProt Q9Y6M0) | inactive: -0.052 |
| PSMB3 (UniProt P49720) | inactive: -0.038 |
| PTPA isoform 2 (UniProt Q15257) | inactive: -0.015 |
| PSMD13 (UniProt Q9UNM6) | inactive: 0.001 |
| PTEN isoform 2 (UniProt P60484) | inactive: 0.023 |
| PTK2 (UniProt Q05397) | inactive: 0.038 |
| PSME3 isoform 2 (UniProt P61289) | inactive: 0.008 |
| PSME2 (UniProt Q9UL46) | inactive: 0.047 |
| PUM2 (UniProt Q8TB72) | inactive: -0.101 |
| PRXL2A (UniProt Q9BRX8) | inactive: 0.024 |
| PSMB2, A0A087WVV1 | inactive: 0.032 |
| PRPH isoform 2 (UniProt P41219) | inactive: 0.131 |
| PTMS (UniProt P20962) | inactive: -0.018 |
| PTBP3 isoform 4 (UniProt O95758) | inactive: 0.009 |
| PTCD3 (UniProt Q96EY7) | inactive: -0.002 |
| PSMD4 (UniProt Q5VWC4) | inactive: 0.06 |
| PRR12 (UniProt Q9ULL5) | inactive: -0.03 |
| PRR14L (UniProt Q5THK1) | inactive: -0.033 |
| PUF60 isoform 2 (UniProt Q9UHX1) | inactive: -0.003 |
| PSMD14 (UniProt O00487) | inactive: 0.005 |
| PRSS50 (UniProt Q9UI38) | inactive: -0.118 |
| PTPRJ (UniProt Q12913) | inactive: -0.09 |
| PSMB10 (UniProt P40306) | inactive: -0.015 |
| PSMB8 (UniProt P28062) | inactive: -0.035 |
| PSIP1 (UniProt V9GYT7) | inactive: 0.072 |
| PSEN2 (UniProt P49810) | inactive: -0.009 |
| PTPN7 isoform 3 (UniProt P35236) | inactive: -0.04 |
| PRRC2A (UniProt P48634) | inactive: -0.017 |
| PSMA7 (UniProt H0Y586) | inactive: -0.007 |

compound: C[C@@H](Oc1cc(-c2cnn(C3CCNCC3)c2)cnc1N)c1c(Cl)ccc(F)c1Cl [crizotinib]; test: as above
How it was run: as §1

| Target | log2 fold change |
| --- | --- |
| PTRH1 (UniProt Q86Y79) | inactive: -0.071 |
| PRSS21 (UniProt Q9Y6M0) | inactive: -0.004 |
| PSMB3 (UniProt P49720) | inactive: 0.04 |
| PTPA isoform 2 (UniProt Q15257) | inactive: 0.045 |
| PSMD13 (UniProt Q9UNM6) | inactive: 0 |
| PSMF1 (UniProt Q5QPM7) | inactive: -0.049 |
| PTPRF (UniProt P10586) | inactive: -0.193 |
| PTEN isoform 2 (UniProt P60484) | inactive: -0.043 |
| PRSS8 (UniProt Q16651) | inactive: 0.093 |
| PTK2 (UniProt Q05397) | inactive: 0.414 |
| PSME3 isoform 2 (UniProt P61289) | inactive: 0.054 |
| PSME2 (UniProt Q9UL46) | inactive: 0.009 |
| PUM2 (UniProt Q8TB72) | inactive: 0.054 |
| PSMB2, A0A087WVV1 | inactive: -0.154 |
| PRPH isoform 2 (UniProt P41219) | inactive: 0.05 |
| PTMS (UniProt P20962) | inactive: 0.012 |

| Target | log2 fold change |
| --- | --- |
| PTBP3 isoform 4 (UniProt O95758) | inactive: -0.024 |
| PTCD3 (UniProt Q96EY7) | inactive: -0.092 |
| PSMD4 (UniProt Q5VWC4) | inactive: 0.003 |
| PRR12 (UniProt Q9ULL5) | inactive: 0.008 |
| PRR14L (UniProt Q5THK1) | inactive: 0.015 |
| PUF60 isoform 2 (UniProt Q9UHX1) | inactive: 0.005 |
| PSMD14 (UniProt O00487) | inactive: 0.015 |
| PTOV1 (UniProt Q86YD1) | inactive: -0.058 |
| PTPRJ (UniProt Q12913) | inactive: 0.054 |
| PSMB10 (UniProt P40306) | inactive: -0.013 |
| PSMB8 (UniProt P28062) | inactive: -0.041 |
| PSIP1 (UniProt V9GYT7) | inactive: -0.052 |
| PSEN2 (UniProt P49810) | inactive: -0.127 |
| PTPN7 isoform 3 (UniProt P35236) | inactive: 0.043 |
| PRRC2A (UniProt P48634) | inactive: 0.06 |
| PSMA7 (UniProt H0Y586) | inactive: -0.003 |
